Measured values from PubChem BioAssay AID493014 (National Center for Advancing Translational Sciences (NCATS), 2011).
The whole screen tested about 340,000 compounds, of which about 170 (0.05%) were called active. This list was built around the results that the source calls inconclusive (neither active nor inactive); the mix of calls is not that of the screen. Calls follow the shape of the dose curve; as a rule, active = well fitted inhibition curve with a large enough effect in the signal ratio, with a control signal flat (not every such curve was filed as active); inconclusive = small, poorly fitted or top-dose-only effect, or effect the other way, or a change in a side signal; inactive = flat fitted curve, though single readings scatter; the % refers to the signal ratio. Where the call is inconclusive, the potency comes from a doubtful curve fit.
Potency is read from the fitted curve at half-maximal effect.

Test: qHTS Assay to Find Inhibitors of Chronic Active B-Cell Receptor Signaling;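 as to activity change, negative = inhibition: plate controls were basal doxycycline-induced cells for no effect and cells given 10 µM MG132 for full effect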
Details: ABC-DLBCL IkBa-CBG/CBR reporter, luminescence ratio (green luciferase fused to IkBa over red control in TMD8 lymphoma cells), 4 h; activity change, negative = inhibition: at 46.1 µM (top of the series)
Outline: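 Concentration-response series (up to 46 uM) were applied to TMD8 dual-reporter cells for 4 h at 37C with doxycycline. Green/red ratio, after filter-overlap correction, defined %Activity; red signal alone was normalised to basal cells and zero luminescence.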
With `O=C1C2C(c3cccc(/C=C/c4ccccc4)c3)CC=CC2C(c2ccc3ccccc3c2)N1Cc1ccccc1` (stereo not given) the activity change, negative = inhibition was inconclusive: 0.29%.
In the case of `O=C(NCCO)c1nc2ccccc2s1`, the Potency is reported as inconclusive: 5.8 µM [falling, partial curve].
With `CC(C)Cn1c(N)c(C(=O)COC(=O)c2cc(C3CC3)nc3ccccc23)c(=O)n(C)c1=O` the activity change, negative = inhibition was inconclusive: -0.115%.
With `CCOC(=O)NC(=O)/C(C#N)=N\Nc1ccc(Cl)cc1` the activity change, negative = inhibition was “inactive”.
In the case of `CCOC(=O)c1c(NC(=O)c2cccnc2Cl)sc(C(=O)N(C)C)c1C`, the activity change, negative = inhibition is reported as inconclusive: -17.7%.
With `NC(=O)c1cc2ccccc2o/c1=N/NC(=O)c1cccs1` the activity change, negative = inhibition was inconclusive: 2.66%.
For `Cc1ccc(OCC(=O)c2cc(C)n(Cc3cccs3)c2C)c([N+](=O)[O-])n1`, the activity change, negative = inhibition was “inactive”.
With `Cc1[nH]nc2cn[nH]c12` the activity change, negative = inhibition was inconclusive: -1.36%.
For `COc1ccc(OC)c(-c2nc3ccccc3nc2-c2ccccc2)c1`, the Potency was inconclusive: 5.62 µM [rising, single point].
With `Cn1cccc1CC(=O)NNC(=S)Nc1ccc(Cl)cc1Cl` the activity change, negative = inhibition was inconclusive: 14.9%.
For `O=C1C(=O)N(CCN2CCOCC2)C(c2ccccn2)/C1=C(/O)c1ccc(Cl)cc1` (stereo not given), the Potency was inconclusive: 0.0058 µM [falling, full curve, poor fit].
For `O=C(Cc1ccccc1)NCc1ccc(F)cc1`, the activity change, negative = inhibition was inconclusive: 16.6%.
For `CN(C)C(CNC(=O)c1cc(S(=O)(=O)N(C)c2ccccc2)ccc1Cl)c1ccccc1` (stereo not given), the activity change, negative = inhibition was inconclusive: 4.89%.
With `COc1ccc(CCN(Cc2cc3cccc(C)c3[nH]c2=O)C(=O)N2CCCC2)cc1OC` the activity change, negative = inhibition was inconclusive: -2.33%.
With `CC(C)c1nc2cc(C(=O)N(C)Cc3ccc(F)cc3)ccc2o1` the activity change, negative = inhibition was “inactive”.
In the case of `Fc1ccc(-c2nc3c(-c4ccc(F)cc4)cnn3cc2CCN2CCOCC2)cc1`, the Potency is reported as inconclusive: 20 µM [falling, partial curve].
With `O=c1ccccn1Cc1c(F)cccc1Cl` the activity change, negative = inhibition was inconclusive: -0.524%.
In the case of `COc1ccc(C(=O)NNC(=S)NC(=O)c2ccc(OC)cc2)cc1`, the activity change, negative = inhibition is reported as inconclusive: 3.96%.
In the case of `O=[N+]([O-])c1ccccc1-c1cc(-c2ccccc2O)n[nH]1`, the Potency is reported as inconclusive: 0.206 µM [falling, full curve, poor fit].
For `O=C(C1CCC1)N1CCc2cc(S(=O)(=O)Nc3ccc4c(c3)OCO4)ccc21`, the activity change, negative = inhibition was “inactive”.
With `COc1ccc(NC(=O)CSCC(=O)N(C)Cc2cccc(OC)c2OC)cc1` the activity change, negative = inhibition was inconclusive: -2.93%.
For `CN(Cc1ccccc1)C(=O)c1nc2ccccn2c1CNCCn1cccn1`, the activity change, negative = inhibition was inconclusive: 4.09%.
In the case of `O=C(Cn1ccc(C(F)(F)F)n1)N=Nc1c(O)[nH]c2ccc(Br)cc12`, the activity change, negative = inhibition is reported as inconclusive: -0.816%.
For `COc1ccc(C2C(C#N)=C(/N=C/N3CCN(C)CC3)OC3=C2C(=O)CC(C)(C)C3)cc1OC` (stereo not given), the activity change, negative = inhibition was inconclusive: 1.29%.
In the case of `CC(C)c1ccc(OCC(=O)NCc2ccco2)cc1`, the activity change, negative = inhibition is reported as inconclusive: 5%.
For `COCCNC(=S)NNc1cccc(C(=O)O)c1`, the Potency was inconclusive: 35.5 µM [falling, single point].
With `CC[C@]12c3[nH]c4ccc(OC)cc4c3CCN1C(=O)C(CC(=O)NC/C=C(\C)CCC=C(C)C)C[C@@H]2C(=O)N1CCN(C(=O)c2ccco2)CC1` (stereo not given in full) the Potency was inconclusive: 23.1 µM [falling, partial curve, poor fit].
With `Cc1cccc(NC2SC(=O)NC2=O)c1` (stereo not given) the activity change, negative = inhibition was “inactive”.
With `O=c1[nH]nc(Cc2ccc(Cl)cc2)c2ccccc12` the Potency was inconclusive: 29.1 µM [falling, single point].
With `COc1ccccc1-c1cc(C(=O)NN)[nH]n1` the Potency was inconclusive: 35.5 µM [cytotoxic, single point].
In the case of `Cc1ccc(SCCC(=O)N2CCC(C(N)=O)CC2)cc1`, the activity change, negative = inhibition is reported as “inactive”.
For `Cc1ccccc1NC(=O)/C=C/c1cccs1`, the activity change, negative = inhibition was inconclusive: 244%.
For `COc1ccc(OCC(=O)N/N=C(\C)c2ccc(OC)cc2)cc1`, the activity change, negative = inhibition was “inactive”.
In the case of `O=C(CCn1c(=S)[nH]c2cc3c(cc2c1=O)OCO3)NCc1ccccc1Cl`, the activity change, negative = inhibition is reported as “inactive”.
With `COC(=O)c1ccc(Oc2cc(C)nc(SC)n2)cc1` the Potency was inconclusive: 25.1 µM [falling, single point].
For `COc1cc(C(=O)NNC(=S)NC(=O)c2ccc3c(c2)OCO3)cc(OC)c1OC`, the Potency was inconclusive: 25.1 µM [falling, single point].
For `CCCCC(CC)COC(=O)c1ccc(N(C)C)cc1` (stereo not given), the activity change, negative = inhibition was inconclusive: -0.76%.
In the case of `CCCCn1c(CN2CCOCC2)nc2c1c(=O)n(C)c(=O)n2C`, the activity change, negative = inhibition is reported as inconclusive: 12.2%.
In the case of `Nc1ncnc2c1ncn2[C@@H]1O[C@H](CNC(=O)[C@@H](N)COCc2ccccc2)[C@@H](O)[C@H]1O`, the activity change, negative = inhibition is reported as inconclusive: 0.791%.
For `CN(C)CCNC(=O)c1ccc(-c2nn(C)c(=O)c3ccccc23)cc1`, the activity change, negative = inhibition was inconclusive: -1.79%.
With `COc1ccc(CCNc2c(N)n(Cc3ccccc3)c(=O)[nH]c2=O)cc1OC` the Potency was inconclusive: 29.1 µM [falling, single point].
With `CCOC(=O)CN1C(=O)C(=O)N(Cc2c(Cl)cccc2Cl)C1=O` the activity change, negative = inhibition was inconclusive: 5.39%.
For `CCOC(=O)c1cn2nc(N3CCCC3)ccc2n1`, the Potency was inconclusive: 22.4 µM [falling, single point].
For `O=C(Nc1ccc2c(c1)OCCO2)c1ccc(Br)cc1`, the activity change, negative = inhibition was inconclusive: -19.3%.
With `COC(=O)N1C(=O)[C@](c2ccsc2)(C(C)C)N1C(=O)OC` the Potency was inconclusive: 10 µM [falling, partial curve, poor fit].
In the case of `Cc1cc(Br)ccc1OCCN1CC(C)OC(C)C1` (stereo not given), the activity change, negative = inhibition is reported as inconclusive: 6.84%.
In the case of `CCCn1c(NC(=O)c2cccc(S(=O)(=O)N3CCCC3)c2)nc2ccccc21`, the activity change, negative = inhibition is reported as inconclusive: 11.6%.
With `Brc1ccc2nc(-c3cccs3)c(NCC3CCCO3)n2c1` (stereo not given) the activity change, negative = inhibition was inconclusive: 4.04%.
With `COc1ccccc1N1C(=O)N(CC(=O)C(C)(C)C)c2ccccc2S1(=O)=O` the Potency was inconclusive: 31.6 µM [falling, single point].
For `CC(=O)c1cccc(NC(=O)CCn2c(=S)oc3ccccc32)c1`, the activity change, negative = inhibition was “inactive”.
For `COc1cc(C(=O)N2CCN(S(=O)(=O)c3ccc(F)cc3)CC2)cc(OC)c1OC`, the activity change, negative = inhibition was inconclusive: -1.19%.
With `CC(=O)Nc1ccc(NC(=O)[C@@H](NC(=O)c2ccccc2F)C(C)C)cc1` the activity change, negative = inhibition was inconclusive: -1.44%.
With `CC(=O)Nc1cc(-c2nn(C)c(=O)c3ccccc23)ccc1N1CCOCC1` the activity change, negative = inhibition was inconclusive: 7.8%.
For `NC(=O)[C@H]1CC2(CC(c3cccc(NC(=O)COc4ccc(Cl)cc4)c3)=NO2)CN1C(=O)CC(c1ccccc1)c1ccccc1` (stereo not given in full), the Potency was inconclusive: 7.94 µM [falling, partial curve, poor fit].
For `CC1CCc2c(sc(NC(=O)c3c([N+](=O)[O-])cnn3C)c2C(N)=O)C1` (stereo not given), the activity change, negative = inhibition was “inactive”.
With `CC(/C=C/c1ccccc1F)=N\NC(=O)c1ccccc1` the Potency was inconclusive: 31.6 µM [rising, single point].
For `CC(C)CN(C(=O)COC(=O)c1nc(Cl)ccc1Cl)C1CCS(=O)(=O)C1` (stereo not given), the activity change, negative = inhibition was inconclusive: -19.7%.
With `CCN(CC)C(=S)SCC(=O)c1ccc(F)cc1` the Potency was inconclusive: 35.5 µM [falling, single point].
With `CCOC(=O)c1c(N=CN(C)C)c2cc([N+](=O)[O-])cnc2n1C` the activity change, negative = inhibition was inconclusive: 4.58%.
For `N=c1c2c(ncn1CCN1CCOCC1)Oc1cc(O)ccc1C2c1ccccc1` (stereo not given), the Potency was inconclusive: 10 µM [falling, partial curve].
For `CC(=O)Nc1cccc(Oc2ccc(-c3noc(C)n3)cc2)c1`, the activity change, negative = inhibition was inconclusive: -0.64%.
For `COc1ccc(S(=O)(=O)N(C)CC(=O)Nc2ccc3c(c2)OCO3)cc1OC`, the activity change, negative = inhibition was inconclusive: -3.03%.
For `O=C1CCCC2=C1C(c1cccs1)n1nc(SCc3ccccc3F)nc1N2` (stereo not given), the activity change, negative = inhibition was “inactive”.
With `COc1ccc(-n2c(C)cc(C3=NNC(=NC4CC4)SC3)c2C)cc1` the activity change, negative = inhibition was “inactive”.
In the case of `Cc1cccc(N2CCN(C(=O)C3CCN(c4ncnc5c4nc4n5CCCCC4)CC3)CC2C)c1` (stereo not given), the Potency is reported as inconclusive: 3.16 µM [falling, full curve, poor fit].
For `CC1CCCN(c2nc3c(c(=O)[nH]c(=O)n3C)n2Cc2ccccc2Cl)C1` (stereo not given), the activity change, negative = inhibition was “inactive”.
In the case of `CS(=O)(=O)N(CC(=O)N1CCN(c2ccccc2F)CC1)c1cc(C(F)(F)F)ccc1Cl`, the activity change, negative = inhibition is reported as inconclusive: 3.27%.
In the case of `Cc1sc(NC(=O)c2ccc3ncsc3c2)c(C(N)=O)c1C`, the activity change, negative = inhibition is reported as inconclusive: 8.34%.
In the case of `NS(=O)(=O)c1ccc(CCNCc2cc(Br)ccc2OCc2ccccc2F)cc1`, the activity change, negative = inhibition is reported as inconclusive: -27.9%.
In the case of `Cc1ccc(C)c(N2CCN(C(=O)C3CCCN(c4ncnc5c4nc4n5CCCCC4)C3)CC2)c1` (stereo not given), the Potency is reported as inconclusive: 22.4 µM [falling, single point].
With `COc1cc(C2C(N3C(=O)c4ccccc4C3=O)C(=O)N2c2ccc(C)c(C)c2)cc(OC)c1OC` (stereo not given) the activity change, negative = inhibition was inconclusive: -18.5%.
For `CCCn1cnc2c(oc3ccccc32)c1=O`, the activity change, negative = inhibition was inconclusive: 3.65%.
With `COc1ccc(C2CC(=O)c3cc(OC)c(OC)cc32)cc1OC` (stereo not given) the activity change, negative = inhibition was inconclusive: -19.1%.
For `CCOc1ccc(NC(=O)CSc2nnc(C)n2CC2CCCO2)cc1` (stereo not given), the activity change, negative = inhibition was inconclusive: -11.2%.
For `Cc1c(C(=O)NCCc2ccccc2)oc2ccccc12`, the activity change, negative = inhibition was inconclusive: -13%.
In the case of `C=CCNc1nnc(Cl)c2ccccc12`, the activity change, negative = inhibition is reported as inconclusive: -6.82%.
For `CCCc1nc(SCC(=O)N2CCCC2)c2ccccc2n1`, the activity change, negative = inhibition was inconclusive: -10.2%.
In the case of `COc1ccc(NC(=O)c2cccnc2NCCc2ccccc2)cc1`, the activity change, negative = inhibition is reported as “inactive”.
For `C=CCOc1ccc(/C(CC)=N/O)cc1OC`, the activity change, negative = inhibition was inconclusive: -0.925%.
In the case of `CCOc1cc(C2C3=C(CCCC3=O)NC3=C2C(=O)CCC3)ccc1OCCO`, the activity change, negative = inhibition is reported as inconclusive: 2.74%.
